Values of other authors, collected in patent US11856974B2, “Highly soluble stevia sweetener” (PureCircle Sdn Bhd, priority 2011, dated 2024).
Like-named read-outs stand apart in the source and are kept apart here. Some results were stated once for a whole list of compounds, not compound by compound. At least one compound was matched to its structure with a doubt left.

Details: background description of Rebaudioside A forms, % = grams soluble in 100 grams of solvent, cited from earlier work

Structure (SMILES) | solubility (listed as amorphous form) | solubility (listed as solvate form)
C=C1C[C@@]23CC[C@H]4[C@@](C)(CCC[C@@]4(C)C(=O)O[C@@H]4O[C@H](CO)[C@@H](O)[C@H](O)[C@H]4O)[C@@H]2CC[C@]1(O[C@@H]1O[C@H](CO)[C@@H](O)[C@H](O[C@@H]2O[C@H](CO)[C@@H](O)[C@H](O)[C@H]2O)[C@H]1O[C@@H]1O[C@H](CO)[C@@H](O)[C@H](O)[C@H]1O)C3 [Form 4, Rebaudioside A] | greater than 30% | 
C=C1C[C@@]23CC[C@H]4[C@@](C)(CCC[C@@]4(C)C(=O)O[C@@H]4O[C@H](CO)[C@@H](O)[C@H](O)[C@H]4O)[C@@H]2CC[C@]1(O[C@@H]1O[C@H](CO)[C@@H](O)[C@H](O[C@@H]2O[C@H](CO)[C@@H](O)[C@H](O)[C@H]2O)[C@H]1O[C@@H]1O[C@H](CO)[C@@H](O)[C@H](O)[C@H]1O)C3 [Form 3, Rebaudioside A] |  | greater than 30%
